{"source": "PubChem BioAssay AID1224830 (NIAID, 2016)", "test": "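Host factors that control LPS-induced TNF expression in human macrophages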 (primary screen)", "cells": "human THP-1 monocytic leukaemia cells, TNF dual-luciferase reporter clone, PMA-differentiated to macrophage-like cells", "reagent": "siRNA pool against human genes, 50 nM", "timing": "LPS for 4 h, given about 3 days after siRNA transfection", "conditions": "bacterial LPS (TLR4 ligand), 10 ng/ml", "read-out": "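Ratio of firefly to renilla light, scaled to the plate median and expressed as a robust z-score per replicate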", "scale": "TNF reporter robust z-score: higher = stronger TNF reporter response to LPS", "hit rule": "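a well is active when its z-score exceeds 2.8 or falls below -1.5; control wells carry no call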", "note": "In all, the deposit lists about 18,000 reagents; shown is a part drawn at random. About 2,900 of them (16%) count as active. 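Calls are made per well; low scores hint the gene aids the LPS response, high scores that it dampens it.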 Repeated entries: four replicate wells of each siRNA pool."}
{"gene knocked down": "BRAP (GeneID 8315)", "TNF reporter robust z-score": -1.18, "call": "inactive"}
{"gene knocked down": "BRAP (GeneID 8315)", "TNF reporter robust z-score": -0.32, "call": "inactive"}
{"gene knocked down": "BRAP (GeneID 8315)", "TNF reporter robust z-score": -1.04, "call": "inactive"}
{"gene knocked down": "BRAP (GeneID 8315)", "TNF reporter robust z-score": -0.41, "call": "inactive"}
{"gene knocked down": "ZNF333 (GeneID 84449)", "TNF reporter robust z-score": -0.07, "call": "inactive"}
{"gene knocked down": "ZNF333 (GeneID 84449)", "TNF reporter robust z-score": 1.45, "call": "inactive"}
{"gene knocked down": "ZNF333 (GeneID 84449)", "TNF reporter robust z-score": 1.59, "call": "inactive"}
{"gene knocked down": "CIMIP6 (GeneID 129852)", "TNF reporter robust z-score": 2.11, "call": "inactive"}
{"gene knocked down": "CIMIP6 (GeneID 129852)", "TNF reporter robust z-score": 1.92, "call": "inactive"}
{"gene knocked down": "CIMIP6 (GeneID 129852)", "TNF reporter robust z-score": 0.99, "call": "inactive"}
{"gene knocked down": "CIMIP6 (GeneID 129852)", "TNF reporter robust z-score": 2.18, "call": "inactive"}
{"gene knocked down": "FLYWCH2 (GeneID 114984)", "TNF reporter robust z-score": -0.08, "call": "inactive"}
{"gene knocked down": "FLYWCH2 (GeneID 114984)", "TNF reporter robust z-score": -0.36, "call": "inactive"}
{"gene knocked down": "FLYWCH2 (GeneID 114984)", "TNF reporter robust z-score": -1.11, "call": "inactive"}
{"gene knocked down": "FLYWCH2 (GeneID 114984)", "TNF reporter robust z-score": -1.26, "call": "inactive"}
{"gene knocked down": "COCH (GeneID 1690)", "TNF reporter robust z-score": 0.33, "call": "inactive"}
{"gene knocked down": "COCH (GeneID 1690)", "TNF reporter robust z-score": 0.55, "call": "inactive"}
{"gene knocked down": "COCH (GeneID 1690)", "TNF reporter robust z-score": -1.09, "call": "inactive"}
{"gene knocked down": "COCH (GeneID 1690)", "TNF reporter robust z-score": -0.05, "call": "inactive"}
{"gene knocked down": "RPS6KL1 (GeneID 83694)", "TNF reporter robust z-score": 1.52, "call": "inactive"}
{"gene knocked down": "RPS6KL1 (GeneID 83694)", "TNF reporter robust z-score": 0.75, "call": "inactive"}
{"gene knocked down": "RPS6KL1 (GeneID 83694)", "TNF reporter robust z-score": 1.39, "call": "inactive"}
{"gene knocked down": "RPS6KL1 (GeneID 83694)", "TNF reporter robust z-score": 1.45, "call": "inactive"}
{"gene knocked down": "PIMREG (GeneID 54478)", "call": "inactive"}
{"gene knocked down": "PIMREG (GeneID 54478)", "TNF reporter robust z-score": -0.68, "call": "inactive"}
{"gene knocked down": "PIMREG (GeneID 54478)", "TNF reporter robust z-score": -0.53, "call": "inactive"}
{"gene knocked down": "PIMREG (GeneID 54478)", "TNF reporter robust z-score": -0.85, "call": "inactive"}
{"gene knocked down": "PIMREG (GeneID 54478)", "TNF reporter robust z-score": -1.15, "call": "inactive"}
{"gene knocked down": "LRIT1 (GeneID 26103)", "TNF reporter robust z-score": 1.15, "call": "inactive"}
{"gene knocked down": "LRIT1 (GeneID 26103)", "TNF reporter robust z-score": -0.51, "call": "inactive"}
{"gene knocked down": "LRIT1 (GeneID 26103)", "TNF reporter robust z-score": -0.47, "call": "inactive"}
{"gene knocked down": "LRIT1 (GeneID 26103)", "TNF reporter robust z-score": -0.27, "call": "inactive"}
{"gene knocked down": "TRPV6 (GeneID 55503)", "TNF reporter robust z-score": -0.17, "call": "inactive"}
{"gene knocked down": "TRPV6 (GeneID 55503)", "TNF reporter robust z-score": 0.07, "call": "inactive"}
{"gene knocked down": "TRPV6 (GeneID 55503)", "TNF reporter robust z-score": -0.48, "call": "inactive"}
{"gene knocked down": "TRPV6 (GeneID 55503)", "TNF reporter robust z-score": 0.22, "call": "inactive"}
{"gene knocked down": "ADAMTS6 (GeneID 11174)", "TNF reporter robust z-score": -0.6, "call": "inactive"}
{"gene knocked down": "ADAMTS6 (GeneID 11174)", "TNF reporter robust z-score": -0.44, "call": "inactive"}
{"gene knocked down": "ADAMTS6 (GeneID 11174)", "TNF reporter robust z-score": -0.07, "call": "inactive"}
{"gene knocked down": "ADAMTS6 (GeneID 11174)", "TNF reporter robust z-score": -0.28, "call": "inactive"}
{"gene knocked down": "TICAM2 (GeneID 353376)", "TNF reporter robust z-score": -0.83, "call": "inactive"}
{"gene knocked down": "TICAM2 (GeneID 353376)", "TNF reporter robust z-score": 0.64, "call": "inactive"}
{"gene knocked down": "TICAM2 (GeneID 353376)", "TNF reporter robust z-score": -0.29, "call": "inactive"}
{"gene knocked down": "TICAM2 (GeneID 353376)", "TNF reporter robust z-score": 0.1, "call": "inactive"}
{"gene knocked down": "INTS3 (GeneID 65123)", "TNF reporter robust z-score": -0.81, "call": "inactive"}
{"gene knocked down": "INTS3 (GeneID 65123)", "TNF reporter robust z-score": 0.06, "call": "inactive"}
{"gene knocked down": "INTS3 (GeneID 65123)", "TNF reporter robust z-score": -0.02, "call": "inactive"}
{"gene knocked down": "INTS3 (GeneID 65123)", "TNF reporter robust z-score": 0.62, "call": "inactive"}
{"gene knocked down": "IGLL3P (GeneID 91353)", "TNF reporter robust z-score": -0.27, "call": "inactive"}
{"gene knocked down": "IGLL3P (GeneID 91353)", "TNF reporter robust z-score": 0.53, "call": "inactive"}
{"gene knocked down": "IGLL3P (GeneID 91353)", "TNF reporter robust z-score": -0.71, "call": "inactive"}
{"gene knocked down": "IGLL3P (GeneID 91353)", "TNF reporter robust z-score": 0.51, "call": "inactive"}
{"gene knocked down": "MCOLN3 (GeneID 55283)", "TNF reporter robust z-score": 1.01, "call": "inactive"}
{"gene knocked down": "MCOLN3 (GeneID 55283)", "TNF reporter robust z-score": 1.45, "call": "inactive"}
{"gene knocked down": "MCOLN3 (GeneID 55283)", "TNF reporter robust z-score": -0.23, "call": "inactive"}
{"gene knocked down": "MCOLN3 (GeneID 55283)", "TNF reporter robust z-score": -0.69, "call": "inactive"}
{"gene knocked down": "TMEM187 (GeneID 8269)", "TNF reporter robust z-score": -1.54, "call": "active"}
{"gene knocked down": "TMEM187 (GeneID 8269)", "TNF reporter robust z-score": -0.33, "call": "inactive"}
{"gene knocked down": "TMEM187 (GeneID 8269)", "TNF reporter robust z-score": -1.11, "call": "inactive"}
{"gene knocked down": "PRUNE1 (GeneID 58497)", "TNF reporter robust z-score": -0.13, "call": "inactive"}
{"gene knocked down": "PRUNE1 (GeneID 58497)", "TNF reporter robust z-score": -0.78, "call": "inactive"}
{"gene knocked down": "PRUNE1 (GeneID 58497)", "TNF reporter robust z-score": 0.72, "call": "inactive"}
{"gene knocked down": "PRUNE1 (GeneID 58497)", "TNF reporter robust z-score": 0.02, "call": "inactive"}

Active calls, of those listed so far:
{"gene knocked down": "TMEM187 (GeneID 8269)", "TNF reporter robust z-score": -1.54, "call": "active"}
